Source: patent publication US20200040058A1 (JULIUS MAXIMILIANS UNIVERSIT T W RZBURG, published 2020)
These are yes or no findings as the source states them, for the method shown. Some results given as binding are weak or reduced against the parent protein; the word gives no strength.

Chains of the proteins cited; added tags and fusions are not shown. Residues count along the entry.
UniProt Q01973, residues 30-403: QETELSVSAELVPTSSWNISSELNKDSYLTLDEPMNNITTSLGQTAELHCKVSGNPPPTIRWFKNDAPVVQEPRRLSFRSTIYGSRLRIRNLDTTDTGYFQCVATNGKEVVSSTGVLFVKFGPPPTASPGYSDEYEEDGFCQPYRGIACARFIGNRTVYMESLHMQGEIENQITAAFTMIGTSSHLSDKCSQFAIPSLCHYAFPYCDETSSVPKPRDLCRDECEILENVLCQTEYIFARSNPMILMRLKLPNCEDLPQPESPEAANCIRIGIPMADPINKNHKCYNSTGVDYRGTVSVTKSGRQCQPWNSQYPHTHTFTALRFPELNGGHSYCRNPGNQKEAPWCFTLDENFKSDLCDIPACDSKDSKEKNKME

Key:
[1] = biological target: Recombinant aggregated ROR1 protein, AlexaFluor647-labeled (UniProt Q01973); test: flow cytometry; CAR T cells stained with 5.3 µg/ml AlexaFluor647-labeled aggregated ROR1
[2] = biological target: Recombinant aggregated ROR1 protein, AlexaFluor647-labeled (UniProt Q01973); test: flow cytometry; CAR T cells stained with AlexaFluor647-labeled aggregated ROR1

B1: humanized 2A2 ROR1 CAR (other)
chain: EVQLVQSGAEVKKPGASVKVSCKASGYTFSDYEMHWVRQAPGQGLEWLGAIDPETGGTAYNQKFKGRVTMTGDTSISTAYMELSRLTSDDTAVYYCTGYYDYDSFTYWGQGTLVSVSSGGGGSGGGGSGGGGSDIQMTQSPSSLSTSVGDRVTITCKASQNVDAAVAWYQQKPGKAPKLLIYSASNRYTGVASRFSGSGSGTDFTFTISSLQSEDLADYFCQQYDIYPYTFGQGTKLEIKESKYGPPCPPCPMFWVLVVVGGVLACYSLLVTVAFIIFWVKRGRKKLLYIFKQPFMRPVQTTQEEDGCSCRFPEEEEGGCELRVKFSRSADAPAYQQGQNQLYNELNLGRREEYDVLDKRRGRDPEMGGKPRRKNPQEGLYNELQKDKMAEAYSEIGMKGERRRGKGHDGLYQGLSTATKDTYDALHMQALPPR
notes: Chimeric antigen receptor with an scFv targeting domain, expressed on primary human T cells after lentiviral transduction; also called h2A2 CAR; h2A2
- binding [1]: binds
- binding [2]: binds
